Reference: article PMC10120462, “Styrylquinazoline derivatives as ABL inhibitors selective for different DFG orientations” (Journal of Enzyme Inhibition and Medicinal Chemistry, 2023)

How the values were obtained:
Assay type in all cases: cell-based
NHDF = experiment: Cytotoxicity studies (MTS), normal fibroblasts; conditions: 72 h, normal human fibroblasts, read-out: Antiproliferative activity IC50 NHDF
Method: The antiproliferative properties of all synthesised compounds were tested on a panel of seven different human cancer cell types, including chronic myeloid leukaemia cells (K562) with p53 and ABL protein mutations and solid tumours, such as pancreatic ductal adenocarcinoma (PANC-1), wild type colon carcinoma (HCT 116 p53^+/+) and a mutant with a deletion of the TP53 gene (HCT 116 p53^-/-), lung cancer (A549), breast cancer (MCF-7) and glioblastoma (U-251). Glioblastoma is the most aggressive cancer and has a poor prognosis and short survival after application of available treatments. In contrast, the other cell lines studied represent common cancers found in the human population. Nevertheless, these cell lines are characterised by a different landscape of kinase expression, as reported in[36]. In chronic leukaemia cells, an aberration of the Philadelphia chromosome is common in which a fragment of chromosome 9 is displaced to chromosome 22, leading to the formation of the oncogenic protein BCR-ABL. The altered structure of the protein leads to abnormal activity that promotes excessive growth and differentiation of cells even in the absence of growth factors, as well as inhibition of apoptosis and formation of metastases. […] The p53 protein encoded by this gene plays a pivotal role in controlling cell division or cell fate when damage is detected. […]

HCT 116 p53+/+ = experiment: Cytotoxicity studies (MTS), antiproliferative activity; conditions: Homo sapiens, 72 h
Source text: (§1) In contrast, the other cell lines studied represent common cancers found in the human population. Nevertheless, these cell lines are characterised by a different landscape of kinase expression, as reported in[36]. In chronic leukaemia cells, an aberration of the Philadelphia chromosome is common in which a fragment of chromosome 9 is displaced to chromosome 22, leading to the formation of the oncogenic protein BCR-ABL. The altered structure of the protein leads to abnormal activity that promotes excessive growth and differentiation of cells even in the absence of growth factors, as well as inhibition of apoptosis and formation of metastases. Moreover, the status of the TP53 gene in leukaemia is not insignificant. Mutations of the TP53 gene occur in more than 50% of all cancers, leading to increased metastasis and an overall poor prognosis[38]^,[39]. The p53 protein encoded by this gene plays a pivotal role in controlling cell division or cell fate when damage is detected. […] Therefore, interaction between the signalling network of the BCR-ABL pathway and p53 often results in an impairment of p53 function and survival[43]^,[44]. […] Selectivity studies were performed on normal human fibroblast – NHDF cell line.
(§2) M. Rusin from the Maria Sklodowska-Curie Memorial Cancer Centre and Institute of Oncology in Gliwice, Poland. […] G. Kramer-Marek from the Institute of Cancer Research in London, United Kingdom. The human suspension chronic myeloids leukaemia cell line K562 and the pancreatic ductal adenocarcinoma cell line PANC-1 were purchased from Merck. The normal human dermal fibroblasts cell line NHDF were obtained from PromoCell. All adherent cancer cell lines were cultured in Dulbecco’s Modified Eagle’s medium (DMEM) supplemented with 10% heat-inactivated foetal bovine serum – FBS (all from Merck). […] Each complete medium contained a mixture of two antibiotics - penicillin and streptomycin (1% v/v; Gibco). Cell lines were cultured at 37 °C with 5% CO2 humidified atmosphere.
(§3) The assay was carried out after 72 h of incubation with different concentrations of the tested compounds. Then DMEM without phenol red was added to each well with CellTiter 96®AQueous One Solution-MTS (Promega) solution and incubated for 1 h or 3 h (PANC-1) at 37 °C. The optical densities of the samples were measured at 490 nm using a multi-plate reader (Synergy 4, BioTek). […] Each compound was tested in triplicate in a single experiment and each experiment was performed three or four times.

U-251 = experiment: as above; conditions: Homo sapiens, 72 h
Source text: as §1, §2, §3

HCT 116 p53−/− = experiment: as above; conditions: Homo sapiens, 72 h
Source text: as §1, §2, §3

PANC-1 = experiment: as above; conditions: Homo sapiens, 72 h
Source text: as §1, §2, §3

MCF-7 = experiment: as above; conditions: Homo sapiens, MCF7, 72 h
Source text: as §1, §2, §3

K562 = experiment: as above; conditions: Homo sapiens, 72 h
Source text: as §1, §2, §3

A549 = experiment: as above; conditions: Homo sapiens, 72 h
Source text: as §1, §2, §3

`Cc1ccc(NC(=O)c2ccc(CN3CCN(C)CC3)cc2)cc1Nc1nccc(-c2cccnc2)n1` [Imatinib, imatinib, reference compound] gave an IC50 (NHDF) greater than 25 µM, an IC50 (HCT 116 p53+/+) of 44.6 ± 2.41 µM and an IC50 (U-251) greater than 25 µM. The IC50 (HCT 116 p53−/−) was 51.2 ± 4.09 µM, the IC50 (PANC-1) was greater than 25 µM and the IC50 (MCF-7) was greater than 25 µM. The IC50 (K562) was 0.133 ± 0.03 µM and the IC50 (A549) was greater than 25 µM.
